Where a chain is given by its changes, count along the chain named. These are yes or no findings as the source states them, for the method shown. Some entries that bind do so weakly or less than the wild type. Values belong to the binder of their own block, whether it stands above or below them.
Key:
[1] = biological target: human TFPI K1 + K2 (human) (UniProt P10646); experiment: Western blots and ELISA
[2] = biological target: human TFPI K1 + K2 + K3 (human) (UniProt P10646); experiment: Western blots and ELISA
[3] = biological target: mouse tissue factor pathway inhibitor (TFPI) (mouse) (UniProt O54819); experiment: ELISA, coated mouse TFPI
[4] = biological target: human tissue factor pathway inhibitor (TFPI) (human) (UniProt P10646); experiment: ELISA, Fab lysate on coated human TFPI

Amino acid sequences for entries named in this document (tags omitted). A change or cut given only in a name is not applied to a line headed by its entry. Residues count along the entry.
UniProt P10646: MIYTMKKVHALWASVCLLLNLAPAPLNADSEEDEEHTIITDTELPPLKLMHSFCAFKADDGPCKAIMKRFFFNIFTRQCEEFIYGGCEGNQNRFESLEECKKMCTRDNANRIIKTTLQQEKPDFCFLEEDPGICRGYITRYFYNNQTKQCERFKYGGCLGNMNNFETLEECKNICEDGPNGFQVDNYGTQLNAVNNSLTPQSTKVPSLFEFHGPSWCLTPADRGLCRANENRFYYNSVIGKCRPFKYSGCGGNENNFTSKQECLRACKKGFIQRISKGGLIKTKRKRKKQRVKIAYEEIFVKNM
human tissue factor pathway inhibitor (TFPI): residues 29-304 of P10646
human TFPI K1 + K2 + K3: residues 29-270 of P10646
human TFPI K1 + K2: residues 29-189 of P10646
UniProt O54819, residues 29-289: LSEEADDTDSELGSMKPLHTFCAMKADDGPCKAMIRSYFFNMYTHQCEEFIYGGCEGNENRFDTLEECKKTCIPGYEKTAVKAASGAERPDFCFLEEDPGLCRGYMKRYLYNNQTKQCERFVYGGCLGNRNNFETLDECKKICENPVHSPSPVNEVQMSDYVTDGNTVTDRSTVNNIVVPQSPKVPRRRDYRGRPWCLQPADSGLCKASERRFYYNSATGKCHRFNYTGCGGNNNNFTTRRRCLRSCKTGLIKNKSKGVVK

binding [1]: binds | binding [2]: binds
B1: TP-3G1 chimeric IgG (antibody, V domains shown)
VH: QVQLQQSGPGLVKPSQTLSLTCAISGDSVSSNSGGWGWIRQSPGRGLEWLGLIYYRSKWYNAYAVSVKSRITINPDTSKNQFSLQLNSVTPEDTAVYYCARYLGSNFYVYSDVWGQGTLVTVSS
VL: DIQMTQSPSSLSASVGDRVTITCRASQGISSYLHWYQQKPGKAPKLLIYGASTLQSGVPSRFSGSGSGTDFTLTISSLQPEDFATYYCQQQNGYPFTFGQGTKVEIKR

binding [3]: binds
B2: TP-3G1 Fab (Fab, V domains shown)
VH: B1 VH
VL: B1 VL

binding [1]: binds | binding [2]: binds
B3: TP-4B7 chimeric IgG (antibody, V domains shown)
VH: QVQLQQSGPGLVKPSQTLSLTCAISGDSVSSNSAAWSWIRQSPGRGLEWLGIIYKRSKWYNDYAVSVKSRITINPDTSKNQFSLQLNSVTPEDTAVYYCARWHSDKHWGFDYWGQGTLVTVSS
VL: DIVMTQSPLSLPVTPGEPASISCRSSQSLVFSDGNTYLNWYLQKPGQSPQLLIYKGSNRASGVPDRFSGSGSGTDFTLKISRVEAEDVGVYYCQQYDSYPLTFGQGTKVEIKR

binding [3]: binds
B4: TP-4B7 Fab (Fab, V domains shown)
VH: B3 VH
VL: B3 VL

binding [3]: binds
B5: TP-2G9 Fab (Fab, V domains shown)
VH: QVQLVESGGGLVQPGGSLRLSCAASGFTFNSYAMTWVRQAPGKGLEWVSAIKSDGSNTYYADSVKGRFTISRDNSKNTLYLQMNSLRAEDTAVYYCARNDSGWFDVWGQGTLVTVSS
VL: DIALTQPASVSGSPGQSITISCTGTSSDLGGFNTVSWYQQHPGKAPKLMIYSVSSRPSGVSNRFSGSKSGNTASLTISGLQAEDEADYYCQSYDLNNLVFGGGTKLTVLG

binding [3]: binds
B6: TP-3C1 Fab (Fab, V domains shown)
VH: QVQLVESGGGLVQPGGSLRLSCAASGFTFSSYSMHWVRQAPGKGLEWVSGISYSSSFTYYADSVKGRFTISRDNSKNTLYLQMNSLRAEDTAVYYCARALGGGVDYWGQGTLVTVSS
VL: B5 VL

binding [1]: binds | binding [2]: binds
B7: TP-2B3 chimeric IgG (antibody, V domains shown)
VH: QVQLQQSGPGLVKPSQTLSLTCAISGDSVSSNSAAWGWIRQSPGRGLEWLGMIYYRSKWYNSYAVSVKSRITINPDTSKNQFSLQLNSVTPEDTAVYYCARTMSKYGGPGMDVWGQGTLVTVSS
VL: DIVLTQSPATLSLSPGERATLSCRASQNIGSNYLAWYQQKPGQAPRLLIYGASTRATGVPARFNGSGSGTDFTLTISSLEPEDFAVYYCQQLNSIPVTFGQGTKVEIKR

binding [3]: binds
B8: TP-2B3 Fab (Fab, V domains shown)
VH: B7 VH
VL: B7 VL

binding [3]: binds
B9: TP-3A4 Fab (Fab, V domains shown)
VH: QVQLVESGGGLVQPGGSLRLSCAASGFTFSSYWMHWVRQAPGKGLEWVSSISYDSSNTYYADSVKGRFTISRDNSKNTLYLQMNSLRAEDTAVYYCARYGGMDYWGQGTLVTVSS
VL: DIELTQPPSVSVAPGQTARISCSGDNLRDKYASWYQQKPGQAPVLVIYSKSERPSGIPERFSGSNSGNTATLTISGTQAEDEADYYCSSYTLNPNLNYVFGGGTKLTVLG

binding [3]: binds
B10: TP-2E5 Fab (Fab, V domains shown)
VH: QVQLQQSGPGLVKPSQTLSLTCAISGDSVSSNSAAWSWIRQSPGRGLEWLGMIFYRSKWNNDYAVSVKSRITINPDTSKNQFSLQLNSVTPEDTAVYYCARVNANGYYAYVDLWGQGTLVTVSS
VL: DIQMTQSPSSLSASVGDRVTITCRASQPIYNSLSWYQQKPGKAPKLLIYGVSNLQSGVPSRFSGSGSGTDFTLTISSLQPEDFAVYYCLQVDNLPITFGQGTKVEIKR

binding [3]: binds
B11: TP-2A2 Fab (Fab, V domains shown)
VH: QVQLVESGGGLVQPGGSLRLSCAASGFTFSNNAMNWVRQAPGKGLEWVSTISYDGSNTYYADSVKGRFTISRDNSKNTLYLQMNSLRAEDTAVYYCARQAGGWTYSYTDVWGQGTLVTVSS
VL: DIELTQPPSVSVAPGQTARISCSGDNIRTYYVHWYQQKPGQAPVVVIYGDSKRPSGIPERFSGSNSGNTATLTISGTQAEDEADYYCQSYDSEADSEVFGGGTKLTVLG

binding [3]: binds | binding [4]: binds
B12: TP-2A5.1 Fab (Fab, V domains shown)
VH: QVQLVESGGGLVQPGGSLRLSCAASGFTFSSYGSWVRQAPGKGLEWVSVISGSGSSTYYADSVKGRFTISRDNSKNTLYLQMNSLRAEDTAVYYCARVNISTHFDVWGQGTLVTVSS
VL: DIELTQPPSVSVAPGQTARISCSGDNIPEKYVHWYQQKPGQAPVLVIHGDNNRPSGIPERFSGSNSGNTATLTISGTQAEDEADYYCQSFDAGSYFVFGGGTKLTVLG

binding [1]: binds | binding [2]: binds
B13: TP-2A8-IgG (antibody, V domains shown)
VH: QVQLVESGGGLVQPGGSLRLSCAASGFTFRSYGMSWVRQAPGKGLEWVSSIRGSSSSTYYADSVKGRFTISRDNSKNTLYLQMNSLRAEDTAVYYCARKYRYWFDYWGQGTLVTVSS
VL: DIELTQPPSVSVAPGQTARISCSGDNLRNYYAHWYQQKPGQAPVVVIYYDNNRPSGIPERFSGSNSGNTATLTISGTQAEDEADYYCQSWDDGVPVFGGGTKLTVLG

binding [3]: binds
B14: TP-2A8 Fab (Fab, V domains shown)
VH: B13 VH
VL: B13 VL

binding [1]: binds | binding [2]: binds
B15: TP-3C2 chimeric IgG (antibody, V domains shown)
VH: QVQLQQSGPGLVKPSQTLSLTCAISGDSVSSSSAAWSWIRQSPGRGLEWLGMIYYRSKWYNHYAVSVKSRITINPDTSKNQFSLQLNSVTPEDTAVYYCARGGSGVMDVWGQGTLVTVSS
VL: DIQMTQSPSSLSASVGDRVTITCRASQSITNYLNWYQQKPGKAPKLLIYDVSNLQSGVPSRFSGSGSGTDFTLTISSLQPEDFAVYYCQQYSGYPLTFGQGTKVEIKR

binding [3]: binds
B16: TP-2G6 Fab (Fab, V domains shown)
VH: B15 VH with M52I, H62D, G102H, G103S, S104M, G105V, V106G, M107F
VL: DIVLTQSPATLSLSPGERATLSCRASQYVTSSYLAWYQQKPGQAPRLLIYGSSRATGVPARFSGSGSGTDFTLTISSLEPEDFATYYCQQYSSSPITFGQGTKVEIKR

binding [3]: binds
B17: TP-3C2 Fab (Fab, V domains shown)
VH: B15 VH
VL: B15 VL

binding [3]: binds
B18: TP-3B4 Fab (Fab, V domains shown)
VH: QVQLQQSGPGLVKPSQTLSLTCAISGDSVSSNGAAWGWIRQSPGRGLEWLGHIYYRSKWYNSYAVSVKSRITINPDTSKNQFSLQLNSVTPEDTAVYYCARWGGIHDGDIYFDYWGQGTLVTVSS
VL: B15 VL with S28N, T30S, D50G, V51T, N53S, S92G, G93N, Y94N, L96T

binding [3]: binds
B19: TP-3G3 Fab (Fab, V domains shown)
VH: QVQLVESGGGLVQPGGSLRLSCAASGFTFSSYSMSWVRQAPGKGLEWVSSISSSSSNTYYGDSVKGRFTISRDNSKNTLYLQMNSLRAEDTAVYYCARMHYKGMDIWGQGTLVTVSS
VL: B15 VL with S28N, T30H, N31S, Y32H, V51A, N53S, S92Y, G93D

binding [3]: binds
B20: TP-2C7 Fab (Fab, V domains shown)
VH: QVQLQQSGPGLVKPSQTLSLTCAISGDSVSSNSAAWGWIRQSPGRGLEWLGIIYYRSKWYNHYAVSVKSRITINPDTSKNQFSLQLNSVTPEDTAVYYCARSNWSGYFDYWGQGTLVTVSS
VL: B15 VL with S28D, T30R, Y32N, N34A, D50A, V51A, N53S, Y91R, S92N, Y94F

binding [4]: binds
B21: TP-3F1 Fab (Fab, V domains shown)
VH: QVQLVQSGAEVKKPGESLKISCKGSGYSFTDYWIGWVRQMPGKGLEWMGIIQPSDSDTNYSPSFQGQVTISADKSISTAYLQWSSLKASDTAMYYCARFMWWGKYDSGFDVWGQGTLVTVSS
VL: DIELTQPPSVSVAPGQTARISCSGDNIGSYFASWYQQKPGQAPVLVIYDDSNRPSGIPERFSGSNSGNTATLTISGTQAEDEADYYCEGSNVFGGGTKLTVLG

Reference: US20120269817A1
